The subject of the data set is Spodoptera littoralis larvae (laboratory strain of cotton leafworm). In words: Insecticidal leaf dip bioassay on S. littoralis larvae. To be noted: 72 hours, probit (LDP-line) slope.

As for `CCOC(=O)NCCOc1ccc(Oc2ccccc2)cc1` [Fenoxycarb, reference compound], the Slope was 0.298 ± 0.0808 (2nd instar larvae) and 0.225 ± 0.0870 (4th instar larvae).

As for `O=C(COC(=O)Nc1ccccc1)NCCOC(=O)Nc1ccccc1` [Compound 2, 2-oxo-2-({2-[(phenylcarbamoyl)oxy]ethyl}amino)ethyl phenylcarbamate], the Slope is, setting by setting: (2nd instar larvae) 0.198 ± 0.0852; (4th instar larvae) 0.232 ± 0.0880.
